In patent publication US7892350B2, “Sacrificial agents for fly ash concrete” (Boral Material Technologies Inc., priority 2003, dated 2011):

Experiment: Air entrainment in fresh concrete (ASTM C 231-97)

Q: What does the source list for “Sodium Di-isopropopyl naphthalene sulfonate [ND]”?
A: Air (Air 40 0.005, ND 0.0016 % CM, PCC cement, 25% H2 fly ash, LOI 3.6%): 3.8%; Air (Air 40 0.005, ND 0.0016 % CM, PCC cement, 25% H2 fly ash, LOI […]): 2.5%

Q: Which Air (Air 40 0.003, EGPE 0.100 % CM, PCA cement, 25% B1 fly ash, LOI […]) does the source give for `OCCOc1ccccc1` [EGPE, Ethylene glycol phenyl ether] here?
A: 3.0%

Q: What about the Air (Air 40 0.006, EGPE 0.100 % CM, PCA cement, 25% B1 fly ash, LOI […]) of the same compound?
A: 3.7%

Q: And the Air (Air 40 0.007, EGPE 0.017 % CM, PCA cement, 25% B1 fly ash, LOI […])?
A: 4.0%

Q: What about the Air (Air 40 0.007, EGPE 0.017 % CM, PCA cement, no fly ash) of the same compound?
A: 8.7%

Q: And the Air (Air 40 0.007, EGPE 0.100 % CM, PCA cement, 25% B1 fly ash, LOI […])?
A: 5.7%

Q: What about the Air (Air 40 0.007, EGPE 0.100 % CM, PCA cement, no fly ash) of the same compound?
A: 9.5%

Q: And the Air (Air 40 0.007, EGPE 0.200 % CM, PCA cement, 25% B1 fly ash, LOI […])?
A: 8.0%

Q: And the Air (Air 40 0.007, EGPE 0.200 % CM, PCA cement, no fly ash)?
A: 10.0%

Q: And the Air (Air 40 0.008, EGPE 0.050 % CM, PCA cement, 25% B1 fly ash, LOI […])?
A: 5%

Q: And the Air (Air 40 0.008, EGPE […] CM, AC 0.587 % CM, PCA cement)?
A: 7.9%

Q: And the Air (Air 40 0.008, EGPE […] CM, LW 0.107 % CM, PCA cement)?
A: 9.6%

Q: What about the Air (Air 40 0.008, EGPE […] CM, PCA cement, 25% B1 fly ash, LOI […]) of the same compound?
A: 4.4%

Q: What about the Air (Air 40 0.008, EGPE […] CM, PCA cement, no fly ash) of the same compound?
A: 6.2%

Q: And the Air (Air 40 0.009, EGPE 0.100 % CM, PCA cement, 25% B1 fly ash, LOI […])?
A: 4.5%

Q: What about the Air (Table 23: Air 40 0.003, EGPE 0.050 % CM, PCA cement, 25% B1 fly ash, LOI […]) of the same compound?
A: 2.9%

Q: What about the Air (Table 23: Air 40 0.003, EGPE 0.100 % CM, PCA cement, 25% B1 fly ash, LOI […]) of the same compound?
A: 2.7%

Q: And the Air (Table 23: Air 40 0.003, EGPE 0.200 % CM, PCA cement, 25% B1 fly ash, LOI […])?
A: 5.3%

Q: For `COCCO` [EGME, Ethylene glycol methyl ether], which Air (Air 40 0.008, EGME 0.050 % CM, PCA cement, 25% B1 fly ash, LOI […]) is on record?
A: 4.2%

Q: What about the Air (Air 40 0.008, EGME 0.050 % CM, PCA cement, no fly ash) of the same compound?
A: 7.2%

Q: And the Air (Air 40 0.008, EGME […] CM, PCA cement, 25% B1 fly ash, LOI […])?
A: 4.0%
